# PubChem BioAssay AID1259425 | University of Nebraska Medical Center | 2018
# Test: 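Compare each knockdown with KSR1 silencing using changes in marker transcripts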 (primary screen)
# Cells: HCT116 human colon cancer cells
# Reagents: siRNA pool against human genes, 50 nM siRNA
# Measurement: 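After 50 nM siRNA pool, branched-DNA assay measures six marker transcripts per well, minus blank, normalised to the geometric mean of two housekeeping transcripts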
# Direction: BNIP3L mRNA: higher = more BNIP3L transcript after knockdown; NDRG1 mRNA: higher = more NDRG1 transcript after knockdown; BNIP3 mRNA: higher = more BNIP3 transcript after knockdown; ALDOC mRNA: higher = more ALDOC transcript after knockdown; ACSL5 mRNA: higher = more ACSL5 transcript after knockdown
# The deposit covers about 14,000 reagents; shown is a random part of them. No sequences are given here. Not stated in the record: the time to read-out.
gene knocked down,"BNIP3L mRNA, set 1","NDRG1 mRNA, set 1","BNIP3 mRNA, set 1","ALDOC mRNA, set 1","ACSL5 mRNA, set 1"
POMK (protein O-mannose kinase),0.12,0.241,0.335,0.0299,0.267
RGS1 (regulator of G protein signaling 1),0.0837,0.0825,0.239,0.0206,0.189
ABT1 (activator of basal transcription 1),0.0548,0.204,0.311,0.00537,0.335
MAPK12 (mitogen-activated protein kinase 12),0.195,0.381,0.347,0.00951,0.38
PRODH (proline dehydrogenase 1),0.101,0.106,0.272,0.0118,0.0756
RASGRP2 (RAS guanyl releasing protein 2),0.0748,0.177,0.31,0.0067,0.267
FBXO32 (F-box protein 32),0.105,0.147,0.277,0.0254,0.293
INSL4 (insulin like 4),0.0972,0.227,0.243,0.011,0.244
TNFAIP2 (TNF alpha induced protein 2),0.088,0.274,0.344,0.025,0.128
SLPI (secretory leukocyte peptidase inhibitor),0.102,0.289,0.278,0.0167,0.185
SLC1A3,0.104,0.261,0.364,0.0336,0.153
GOLT1B (golgi transport 1B),0.0783,0.088,0.246,0.00993,0.1
KDR (kinase insert domain receptor),0.179,0.113,0.648,0.0257,0.163
LIMK2 (LIM domain kinase 2),0.0427,0.179,0.456,0.0204,0.222
LRRC31 (leucine rich repeat containing 31),0.33,0.393,0.592,0.0829,0.369
TCF7L1 (transcription factor 7 like 1),0.156,0.676,0.449,0.00478,0.283
SRGN (serglycin),0.506,0.104,0.615,0.039,0.187
ESR2 (estrogen receptor 2),0.103,0.376,0.219,0.0213,0.132
KIFC1 (kinesin family member C1),0.0352,0.143,0.25,0.00555,0.134
HCFC1 (host cell factor C1),0.049,0.0471,0.218,0.0133,0.0702
ETAA1 (ETAA1 activator of ATR kinase),0.189,0.2,0.254,0.0388,0.215
CEACAM1 (CEA cell adhesion molecule 1),0.136,0.184,0.262,0.0287,0.349
ELF3 (E74 like ETS transcription factor 3),0.0586,0.172,0.289,0.00291,0.362
ARHGEF12 (Rho guanine nucleotide exchange factor 12),0.128,0.121,0.253,0.0492,0.148
FBXL17 (F-box and leucine rich repeat protein 17),0.101,0.12,0.328,0.0226,0.176
FAM135B (family with sequence similarity 135 member B),0.093,0.16,0.381,0.0144,0.0586
ALG1 (ALG1 chitobiosyldiphosphodolichol beta-mannosyltransferase),0.258,0.308,0.31,0.042,0.336
CDC45 (cell division cycle 45),0.117,0.26,0.235,0.0243,0.111
PSMB5 (proteasome 20S subunit beta 5),0.526,1.99,0.585,0.142,0.403
PTPN11 (protein tyrosine phosphatase non-receptor type 11),0.0659,0.0732,0.194,0.0177,0.0817
CHRNA4 (cholinergic receptor nicotinic alpha 4 subunit),0.0816,0.213,0.214,0.0276,0.127
LY9 (lymphocyte antigen 9),0.0538,0.208,0.304,0.0281,0.126
TXNDC12 (thioredoxin domain containing 12),0.0909,0.152,0.315,0.0467,0.356
HMG20B (high mobility group 20B),0.0714,0.114,0.327,-0.00635,0.273
USP33 (ubiquitin specific peptidase 33),0.0542,0.129,0.181,0.0221,0.216
KANSL3 (KAT8 regulatory NSL complex subunit 3),0.123,0.294,0.485,0.0344,0.25
ADRB3 (adrenoceptor beta 3),0.136,1.75,0.417,0.0745,0.235
IGF2R (insulin like growth factor 2 receptor),0.0772,0.451,0.186,0.0356,0.154
AP1M1 (adaptor related protein complex 1 subunit mu 1),0.206,0.52,0.515,0.0486,0.378
WDR1 (WD repeat domain 1),0.207,0.0838,0.329,0.0715,0.141
SLC39A3,0.198,0.997,0.395,0.0546,0.273
SNCA (synuclein alpha),0.056,0.18,0.329,0.0319,0.247
RND1 (Rho family GTPase 1),0.0965,0.0985,0.231,0.0168,0.11
NPL (N-acetylneuraminate pyruvate lyase),0.158,0.213,0.241,0.0473,0.388
PPP1R1B (protein phosphatase 1 regulatory inhibitor subunit 1B),0.0723,0.0997,0.208,0.00573,0.2
"PCDHAC1 (protocadherin alpha subfamily C, 1)",0.12,0.193,0.305,0.0142,0.213
OR51B4 (olfactory receptor family 51 subfamily B member 4),0.128,0.239,0.319,0.0558,0.185
CDC23 (cell division cycle 23),0.0668,0.0355,0.174,0.00359,0.205
SEC14L1 (SEC14 like lipid binding 1),0.146,0.164,0.369,0.0304,0.135
SCP2,0.059,0.136,0.229,0.00393,0.173
WSCD1 (WSC domain sialate O sulfotransferase 1),0.0687,0.1,0.305,0.00728,0.0833
MPC1,0.132,0.103,0.212,0.0246,0.222
ERAP2 (endoplasmic reticulum aminopeptidase 2),0.0171,0.241,0.321,0.0198,0.294
RGS18 (regulator of G protein signaling 18),0.059,0.154,0.203,0.0152,0.1
C22orf31 (chromosome 22 open reading frame 31),0.131,0.393,0.406,0.0248,0.368
TNFRSF14 (TNF receptor superfamily member 14),0.136,0.216,0.407,0.0475,0.0939
CTRL (chymotrypsin like),0.0351,0.065,0.276,-0.00204,0.146
IRF9 (interferon regulatory factor 9),0.0717,0.0504,0.237,0.00835,0.105
PIGY (phosphatidylinositol glycan anchor biosynthesis class Y),0.0394,0.255,0.467,0.0615,0.302
NQO1 (NAD(P)H quinone dehydrogenase 1),0.121,0.484,0.229,0.019,0.187
LINC01565 (long independently transcribed non-coding RNA 1565),0.0763,0.25,0.392,0.0235,0.117
"CKM (creatine kinase, M-type)",0.0608,0.0908,0.345,0.0421,0.115
MACC1 (MET transcriptional regulator MACC1),0.159,0.183,0.309,0.0664,0.174

4 neighbouring entries from above, for reference:
gene knocked down,"BNIP3L mRNA, set 1","NDRG1 mRNA, set 1","BNIP3 mRNA, set 1","ALDOC mRNA, set 1","ACSL5 mRNA, set 1"
RGS1 (regulator of G protein signaling 1),0.0837,0.0825,0.239,0.0206,0.189
ABT1 (activator of basal transcription 1),0.0548,0.204,0.311,0.00537,0.335
MAPK12 (mitogen-activated protein kinase 12),0.195,0.381,0.347,0.00951,0.38
PRODH (proline dehydrogenase 1),0.101,0.106,0.272,0.0118,0.0756
